Measurements reported in PubChem BioAssay AID1259308 (NCATS, 2017)
This is an unselected part of about 59,000 deposited reagents. About 1,510 of all reagents (2.6%) count as active. 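Calls use total luciferase alone and ignore viability, so some active siRNAs may act by altering cell number.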 A number with no mark means an inactive call. Reagents against one gene are numbered here. Further read-outs or replicates are left out here. Reagent sequences are not shown.

- Aim: 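Genes whose loss raises luciferase production in HEK293 cells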 (primary screen)
- Cells: human HEK293 embryonic kidney cells stably expressing firefly luciferase (HEK-CMV-Luc2-Hygro)
- Reagent: single siRNA against human genes, 0.8 pmol siRNA per well
- Time to read-out: 72 h
- Measurement: 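Reporter luminescence and viable-cell signal on separate replicate plates, given as percent of non-targeting control and median/MAD z-scores, plus per-cell luciferase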
- Direction: total luciferase, z-score and total luciferase, % of control: higher = more reporter protein produced
- Hit rule: 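Active when the median/MAD z-score for overall luciferase is greater than 3; a gene was taken forward for validation with new siRNAs if at least two of its three siRNAs passed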
- Calls: active = raised luciferase; inactive = no rise

target gene | reagent | total luciferase, z-score | total luciferase, % of control
PYHIN1 (pyrin and HIN domain family member 1) | 1 | -1.85 | 45.1
PYHIN1 (pyrin and HIN domain family member 1) | 2 | -0.573 | 70.5
PYHIN1 (pyrin and HIN domain family member 1) | 3 | -0.167 | 78.6
TECTA (tectorin alpha) | 1 | -0.955 | 62.9
TECTA (tectorin alpha) | 2 | -0.883 | 64.3
TECTA (tectorin alpha) | 3 | -1.95 | 43.1
GSR (glutathione-disulfide reductase) | 1 | -0.312 | 75.7
GSR (glutathione-disulfide reductase) | 2 | 1.07 | 103
GSR (glutathione-disulfide reductase) | 3 | -1.53 | 51.4
ALG3 (ALG3 alpha-1,3- mannosyltransferase) | 1 | -0.379 | 74.4
ALG3 (ALG3 alpha-1,3- mannosyltransferase) | 2 | 1.72 | 116
ALG3 (ALG3 alpha-1,3- mannosyltransferase) | 3 | 8.17 (active) | 244
LOC646179 (retired record) | 1 | 2.72 | 136
LOC646179 (retired record) | 2 | 0.918 | 100
LOC646179 (retired record) | 3 | -0.422 | 73.5
NOX4 (NADPH oxidase 4) | 1 | 0.0999 | 83.9
NOX4 (NADPH oxidase 4) | 2 | -1.92 | 43.8
NOX4 (NADPH oxidase 4) | 3 | -1.2 | 58
CCNF (cyclin F) | 1 | 0.479 | 91.4
CCNF (cyclin F) | 2 | -1.89 | 44.4
CCNF (cyclin F) | 3 | 1.19 | 106
FCN3 (ficolin 3) | 1 | 1.08 | 103
FCN3 (ficolin 3) | 2 | 0.555 | 92.9
FCN3 (ficolin 3) | 3 | 0.207 | 86

As entered above:
CCNF (cyclin F) #1, total luciferase, % of control = 91.4
PYHIN1 (pyrin and HIN domain family member 1) #2, total luciferase, % of control → 70.5
